Source: paper doi:10.1101/2024.09.04.610270
Where a chain is given by its changes, count along the chain named. These are yes or no findings as the source states them, for the method shown. For part of these data: Binding seen in cells or lysates may run through a third protein. Some entries that bind do so weakly or less than the wild type. For part of these data: Tags and fused reporters may be left off the sequences shown.

Amino acid sequences for entries named in this document (tags omitted).
UniProt Q9LY75: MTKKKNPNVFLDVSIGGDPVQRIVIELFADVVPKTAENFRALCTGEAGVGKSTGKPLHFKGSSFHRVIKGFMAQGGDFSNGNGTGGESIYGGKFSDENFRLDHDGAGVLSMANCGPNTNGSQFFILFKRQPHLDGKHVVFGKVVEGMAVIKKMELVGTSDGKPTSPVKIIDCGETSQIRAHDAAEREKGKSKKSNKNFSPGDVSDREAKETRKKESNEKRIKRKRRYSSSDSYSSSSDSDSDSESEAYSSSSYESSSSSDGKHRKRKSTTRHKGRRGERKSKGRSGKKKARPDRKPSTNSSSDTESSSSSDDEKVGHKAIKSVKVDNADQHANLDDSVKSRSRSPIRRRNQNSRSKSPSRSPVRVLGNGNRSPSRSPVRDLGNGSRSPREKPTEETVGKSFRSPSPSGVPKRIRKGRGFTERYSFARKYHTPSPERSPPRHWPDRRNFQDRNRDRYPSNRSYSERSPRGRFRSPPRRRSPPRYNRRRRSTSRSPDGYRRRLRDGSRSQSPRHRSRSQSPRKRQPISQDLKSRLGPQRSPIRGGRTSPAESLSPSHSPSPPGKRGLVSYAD

T1: RS2Z33:^CYFP (Arabidopsis thaliana) (UniProt Q8VYA5)
T1 sequence: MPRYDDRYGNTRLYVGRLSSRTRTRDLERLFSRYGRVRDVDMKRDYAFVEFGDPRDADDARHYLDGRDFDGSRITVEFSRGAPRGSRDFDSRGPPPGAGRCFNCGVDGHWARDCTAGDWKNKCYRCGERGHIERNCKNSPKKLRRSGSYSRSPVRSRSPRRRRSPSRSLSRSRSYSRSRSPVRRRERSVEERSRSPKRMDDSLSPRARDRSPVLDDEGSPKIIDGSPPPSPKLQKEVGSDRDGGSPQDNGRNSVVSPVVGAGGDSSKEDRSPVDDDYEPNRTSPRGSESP

T2: RS2Z32:^CYFP (Arabidopsis thaliana) (UniProt Q9FYB7)
T2 sequence: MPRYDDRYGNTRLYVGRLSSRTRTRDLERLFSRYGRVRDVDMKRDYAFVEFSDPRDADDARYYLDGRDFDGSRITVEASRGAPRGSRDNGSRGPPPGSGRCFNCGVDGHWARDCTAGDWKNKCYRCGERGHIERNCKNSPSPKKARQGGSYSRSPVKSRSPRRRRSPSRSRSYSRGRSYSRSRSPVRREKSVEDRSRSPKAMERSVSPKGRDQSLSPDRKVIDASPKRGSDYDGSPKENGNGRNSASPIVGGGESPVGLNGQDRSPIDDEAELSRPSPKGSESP

T3: RS2Z33mutRRM (Arabidopsis thaliana) (UniProt Q8VYA5)
T3 sequence: T1 sequence with Y14A, Y46A, F48A

T4: arginine/serine-rich zinc knuckle-containing protein 32 (RS2Z32), native full-length, yeast two-hybrid bait (Arabidopsis thaliana) (UniProt Q9FYB7)
T4 sequence: T2 sequence

T5: RS2Z32mutRRM (Arabidopsis thaliana) (UniProt Q9FYB7)
T5 sequence: T2 sequence with Y14A, Y46A, F48A

T6: arginine/serine-rich zinc knuckle-containing protein 33 (RS2Z33), native full-length, yeast two-hybrid bait (Arabidopsis thaliana) (UniProt Q8VYA5)
T6 sequence: T1 sequence

B1: CypRS92 (protein, UniProt Q8RWY7 1-837)
chain: MAKKKNPQVFMDVSIDGDPAETMVFELFPEVAPKTSENFRALCTGEKGIGPRSGKPLHYKGSFFHRIMKGSSAQAGDFVNRNGTAGESIYAGKFPDESPKLRHEETGLLSMSIADRDKFGSHFHITFRPNQQLDRNNVVFGKLIQGKEILKKIERVGDEEGKPTVSVKIIRCGEYSGDKKKSDGKKNGKHKKSLRVRRKKRRRHSSSESESSSDSETDSSESDSESDSDLSSPSFLSSSSHERQKKRKRSSKKDKHRRSKQRDKRHEKKRSMRDKRPKRKSRRSPDSLEDSNSGSEASLSDVNVEIGAKKRKHRVSRRTGNSAPAVEKEAESLHQGKRKGPDLLENRGLRSNGISDAASEQISDRQPDIVDDHPSKSRSRSLSPKRTVSKSTSVSPRRSQSKSPSSSPRWNGGRSPAKGSRQVKNLTNSRRESPGSEEKGRHVRRSPTKSVSRSPVRVKKERDISRSPSKSLSRSPLRSPKRVISRSPVRGRIARSPSRSPVRSASRGSLGRGPLRRSSRRSPSRSPVRSSRRSLSRSPIQLSRRSLSRSPTRLSRRSLSRSPIRSPRKSVSRSPVRSSRKSVSRSPVRSSRRRISRSPVRSSRKSVSRSPIRLSRRSISRSPIRLSRRSISRSPVRGRRRISRSPVPARRRSVRPRSPPPDRRRSLSRSASPNGRIRRGRGFSQRFSYARRYRTSPSPDRSPYRFSDRSDRDRFRSRRRFSPSRFRSPLRGRTPPRYRRRSRSVSPGLCYRNRRYSRSPIRSRSPPYRKRRSPSASHSLSPSRSRSRSKSYSKSPIGTGKARSVSRSPSKARSPSKSDSTSSDNSPGGKKGLVAYD
B2: SR45.1:^NYFP (protein, UniProt Q9SEE9-1 1-414)
chain: MAKPSRGRRSPSVSGSSSRSSSRSRSGSSPSRSISRSRSRSRSLSSSSSPSRSVSSGSRSPPRRGKSPAGPARRGRSPPPPPSKGASSPSKKAVQESLVLHVDSLSRNVNEAHLKEIFGNFGEVIHVEIAMDRAVNLPRGHGYVEFKARADAEKAQLYMDGAQIDGKVVKATFTLPPRQKVSSPPKPVSAAPKRDAPKSDNAAADAEKDGGPRRPRETSPQRKTGLSPRRRSPLPRRGLSPRRRSPDSPHRRRPGSPIRRRGDTPPRRRPASPSRGRSPSSPPPRRYRSPPRGSPRRIRGSPVRRRSPLPLRRRSPPPRRLRSPPRRSPIRRRSRSPIRRPGRSRSSSISPRKGRGPAGRRGRSSSYSSSPSPRRIPRKISRSRSPKRPLRGKRSSSNSSSSSSPPPPPPPRKT
B3: SCL30:^NYFP (protein, UniProt Q8L3X8 1-262)
chain: MRRYSPPYYSPPRRGYGGRGRSPPPPPPRRGYGGGGGGGGRRGSSHGSLLVRNIPLDCRPEELREPFERFGPVRDVYIPRDYYSGQPRGFAFVEFVDAYDAGEAQRSMNRRSFAGREITVVVASESRKRPEEMRVKTRTRSREPSGSRDRSHGRSRSRSISRSRSPRRPSDSRSRYRSRSYSPAPRRRGGPPRGEEDENYSRRSYSPGYEGAAAAAPDRDRNGDNEIREKPGYEAEDRRRGGRAVSRSPSGSRSRSVEVSPR
B4: SR34:^NYFP (protein, UniProt O22315 1-303)
chain: MSSRSSRTVYVGNLPGDIREREVEDLFSKYGPVVQIDLKVPPRPPGYAFVEFDDARDAEDAIHGRDGYDFDGHRLRVELAHGGRRSSDDTRGSFNGGGRGGGRGRGDGGSRGPSRRSEFRVLVTGLPSSASWQDLKDHMRKGGDVCFSQVYRDARGTTGVVDYTCYEDMKYALKKLDDTEFRNAFSNGYVRVREYDSRKDSRSPSRGRSYSKSRSRSRGRSVSRSRSRSRSRSRSPKAKSSRRSPAKSTSRSPGPRSKSRSPSPRRSRSRSRSPLPSVQKEGSKSPSKPSPAKSPIHTRSPSR

How the values were obtained:
[1] = molecular target: T1, RS2Z33:^CYFP (Arabidopsis thaliana); experiment: split reporter
[2] = molecular target: T2, RS2Z32:^CYFP (Arabidopsis thaliana); experiment: split reporter
[3] = molecular target: T3, RS2Z33mutRRM (Arabidopsis thaliana); experiment: two-hybrid
[4] = molecular target: T4, arginine/serine-rich zinc knuckle-containing protein 32 (RS2Z32), native full-length, yeast two-hybrid bait (Arabidopsis thaliana); experiment: two-hybrid
[5] = molecular target: T5, RS2Z32mutRRM (Arabidopsis thaliana); experiment: two-hybrid
[6] = molecular target: T6, arginine/serine-rich zinc knuckle-containing protein 33 (RS2Z33), native full-length, yeast two-hybrid bait (Arabidopsis thaliana); experiment: two-hybrid

Molecule	binding [1]	binding [2]	binding [3]	binding [4]	binding [5]	binding [6]
CypRS64:^NYFP (from UniProt Q9LY75 1-570)	binds	binds				
B1			no binding	binds	no binding	binds
B2	binds	binds				
B3	binds	binds				
B4	binds	binds				
